{"source": "paper doi:10.1101/458190", "key": {"BRK-Y447F (human)": {"target": "BRK-Y447F (human) (UniProt Q13882)", "test": "co-IP"}, "GFP-SMAD4 (human)": {"target": "GFP-SMAD4 (human) (UniProt Q13485)", "test": "co-IP"}, "[1]": {"target": "Halo-SMAD4_320-552 (human) (UniProt Q13485)", "test": "pull-down"}, "Halo-SMAD4_1-140 (human)": {"target": "Halo-SMAD4_1-140 (human) (UniProt Q13485)", "test": "pull-down"}, "Halo-SMAD4_1-320 (human)": {"target": "Halo-SMAD4_1-320 (human) (UniProt Q13485)", "test": "pull-down"}, "[2]": {"target": "Halo-SMAD4_140-552 (human) (UniProt Q13485)", "test": "pull-down"}, "GFP-SMAD2": {"target": "GFP-SMAD2 (UniProt Q15796)", "test": "co-IP"}, "GFP-SMAD3": {"target": "GFP-SMAD3 (UniProt P84022)", "test": "co-IP"}}, "note": "Results are given in words; binding and its absence hold for the method and conditions named. In cells and extracts the contact can be indirect. Some results given as binding are weak or reduced against the parent protein; the word gives no strength.", "data": [{"substance": "GFP-SMAD2 (from UniProt Q15796 1-467)", "values": [{"measurement": "binding", "setting": "BRK-Y447F (human)", "result": "binds"}]}, {"substance": "BRK-WT (from UniProt Q13882 1-451) (enzyme)", "values": [{"measurement": "binding", "setting": "GFP-SMAD4 (human)", "result": "binds"}]}, {"substance": "BRK-W44A (from UniProt Q13882 1-451) (enzyme)", "values": [{"measurement": "binding", "setting": "GFP-SMAD4 (human)", "result": "binds"}]}, {"substance": "SNAP-Flag-BRK-YF (from UniProt Q13882 1-451) (enzyme)", "values": [{"measurement": "binding", "setting": "[1]", "result": "binds"}, {"measurement": "binding", "setting": "Halo-SMAD4_1-140 (human)", "result": "binds"}, {"measurement": "binding", "setting": "Halo-SMAD4_1-320 (human)", "result": "binds"}, {"measurement": "binding", "setting": "[2]", "result": "binds"}]}, {"substance": "GFP-SMAD3 (from UniProt P84022 1-425)", "values": [{"measurement": "binding", "setting": "BRK-Y447F (human)", "result": "binds"}]}, {"substance": "BRK-Y447F (from UniProt Q13882 1-451) (enzyme)", "values": [{"measurement": "binding", "setting": "GFP-SMAD4 (human)", "result": "binds"}, {"measurement": "binding", "setting": "GFP-SMAD2", "result": "binds"}, {"measurement": "binding", "setting": "GFP-SMAD3", "result": "binds"}]}, {"substance": "GFP-SMAD4 (from UniProt Q13485 1-552)", "values": [{"measurement": "binding", "setting": "BRK-Y447F (human)", "result": "binds"}]}]}
